The values that follow come from paper PMC5436826, “The PET and LIM1-2 domains of testin contribute to intramolecular and homodimeric interactions” (PLoS ONE, 2017).

No constants are given. Whether binding was seen depends on the method and setting. A result given as binding can be weak or reduced; the word gives no strength. Where a sequence is shown, tags or fusion partners need not be part of it.

Test [1] addresses GST-LIM1-2 of testin (first 2 LIM domains, coupled to a HIS tag) (human). The test can be described thus: pull-down; GST-tagged bait immobilised on glutathione sepharose (25 μl), 5 μg untagged prey in solution, 2 h at 4°C in buffer A (25 mM Hepes pH 7.6, 150 mM NaCl, protease inhibitors); three washes; resin analysed by Western blot or Coomassie; both purified. On the technique in general: Immunoblotting shows a protein as a band on a membrane.

Test [2] deals with GST-LIM1-3 of testin (human). Described as above.

B1: untagged PET^52-199 of testin (amino acids 52-199) (domain or fragment, UniProt Q9UGI8-1 52-199)
chain: DVLLSNEEDRKVGKLFEDTKYTTLIAKLKSDGIPMYKRNVMILTNPVAAKKNVSINTVTYEWAPPVQNQALARQYMQMLPKEKQPVAGSEGAQYRKKQLAKQLPAHDQDPSKCHELSPREVKEMEQFVKKYKSEALGVGDVKLPCEMD
With B1, the binding result in test [1] and in test [2] was “no binding (tested: 5 μg prey)” each time.

B2: untagged PET^92-233 of testin (amino acids 92-233) (domain or fragment, UniProt Q9UGI8-1 92-233)
chain: MILTNPVAAKKNVSINTVTYEWAPPVQNQALARQYMQMLPKEKQPVAGSEGAQYRKKQLAKQLPAHDQDPSKCHELSPREVKEMEQFVKKYKSEALGVGDVKLPCEMDAQGPKQMNIPGGDRSTPAAVGAMEDKSAEHKRTQ
B2: the binding entry in test [1] and in test [2] was “no binding (tested: 5 μg prey)” in each case.

B3: untagged PET^92-199 of testin (amino acids 92-199) (domain or fragment, UniProt Q9UGI8-1 92-199)
chain: MILTNPVAAKKNVSINTVTYEWAPPVQNQALARQYMQMLPKEKQPVAGSEGAQYRKKQLAKQLPAHDQDPSKCHELSPREVKEMEQFVKKYKSEALGVGDVKLPCEMD
As for B3, the binding entry in test [1] and in test [2] was “no binding (tested: 5 μg prey)” throughout.

B4: untagged PET^52-233 of testin (amino acids 52-233) (domain or fragment, UniProt Q9UGI8-1 52-233)
chain: DVLLSNEEDRKVGKLFEDTKYTTLIAKLKSDGIPMYKRNVMILTNPVAAKKNVSINTVTYEWAPPVQNQALARQYMQMLPKEKQPVAGSEGAQYRKKQLAKQLPAHDQDPSKCHELSPREVKEMEQFVKKYKSEALGVGDVKLPCEMDAQGPKQMNIPGGDRSTPAAVGAMEDKSAEHKRTQ
In the case of B4, the binding result in test [1] and in test [2] was “binds” each time.
